# This is one part of the list.
# Sequences of proteins named here, by UniProt entry; tags and fusion partners are left off. A change or cut given only in a name is not applied to a line headed by its entry.
# UniProt Q96NB1: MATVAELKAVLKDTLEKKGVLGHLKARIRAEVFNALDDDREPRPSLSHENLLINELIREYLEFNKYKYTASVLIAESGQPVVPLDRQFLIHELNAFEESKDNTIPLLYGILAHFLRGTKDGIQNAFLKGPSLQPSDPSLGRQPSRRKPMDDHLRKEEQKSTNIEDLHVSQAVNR
# UniProt Q96DB9: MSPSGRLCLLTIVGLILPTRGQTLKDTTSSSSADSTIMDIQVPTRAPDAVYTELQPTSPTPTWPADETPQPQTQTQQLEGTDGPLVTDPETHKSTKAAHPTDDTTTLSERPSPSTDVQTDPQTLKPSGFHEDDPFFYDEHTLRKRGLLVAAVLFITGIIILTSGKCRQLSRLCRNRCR
# UniProt Q96I24: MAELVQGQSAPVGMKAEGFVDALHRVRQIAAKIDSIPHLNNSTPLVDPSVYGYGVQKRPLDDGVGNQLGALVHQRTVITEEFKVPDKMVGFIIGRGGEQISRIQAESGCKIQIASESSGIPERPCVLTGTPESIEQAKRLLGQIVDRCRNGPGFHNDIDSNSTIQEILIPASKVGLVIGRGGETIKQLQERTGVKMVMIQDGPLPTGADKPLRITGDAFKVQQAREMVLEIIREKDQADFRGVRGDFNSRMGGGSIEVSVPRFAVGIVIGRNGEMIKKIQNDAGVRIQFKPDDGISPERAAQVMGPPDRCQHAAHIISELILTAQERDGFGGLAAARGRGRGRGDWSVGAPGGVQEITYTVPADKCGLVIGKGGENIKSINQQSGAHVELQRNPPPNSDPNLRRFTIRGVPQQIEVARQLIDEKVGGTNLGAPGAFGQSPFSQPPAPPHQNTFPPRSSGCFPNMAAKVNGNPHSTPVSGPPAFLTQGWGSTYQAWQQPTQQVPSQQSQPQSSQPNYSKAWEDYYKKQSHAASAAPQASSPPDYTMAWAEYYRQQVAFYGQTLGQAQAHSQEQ
# UniProt Q8N4A0: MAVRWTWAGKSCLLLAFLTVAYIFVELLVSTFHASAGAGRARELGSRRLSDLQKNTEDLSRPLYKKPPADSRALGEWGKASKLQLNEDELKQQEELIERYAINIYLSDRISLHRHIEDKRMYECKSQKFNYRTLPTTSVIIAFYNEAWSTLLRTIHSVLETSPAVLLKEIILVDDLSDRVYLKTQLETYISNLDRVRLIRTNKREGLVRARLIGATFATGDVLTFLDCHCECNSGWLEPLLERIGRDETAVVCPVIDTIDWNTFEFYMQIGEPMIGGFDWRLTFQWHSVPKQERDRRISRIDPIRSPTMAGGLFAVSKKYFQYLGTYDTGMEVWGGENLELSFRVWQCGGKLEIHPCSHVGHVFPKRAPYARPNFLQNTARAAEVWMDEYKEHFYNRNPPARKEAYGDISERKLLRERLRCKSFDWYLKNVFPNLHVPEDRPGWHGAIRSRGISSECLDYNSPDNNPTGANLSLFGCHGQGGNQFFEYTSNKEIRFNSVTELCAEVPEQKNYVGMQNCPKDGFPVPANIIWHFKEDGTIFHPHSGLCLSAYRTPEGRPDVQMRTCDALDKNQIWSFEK
# UniProt Q92947: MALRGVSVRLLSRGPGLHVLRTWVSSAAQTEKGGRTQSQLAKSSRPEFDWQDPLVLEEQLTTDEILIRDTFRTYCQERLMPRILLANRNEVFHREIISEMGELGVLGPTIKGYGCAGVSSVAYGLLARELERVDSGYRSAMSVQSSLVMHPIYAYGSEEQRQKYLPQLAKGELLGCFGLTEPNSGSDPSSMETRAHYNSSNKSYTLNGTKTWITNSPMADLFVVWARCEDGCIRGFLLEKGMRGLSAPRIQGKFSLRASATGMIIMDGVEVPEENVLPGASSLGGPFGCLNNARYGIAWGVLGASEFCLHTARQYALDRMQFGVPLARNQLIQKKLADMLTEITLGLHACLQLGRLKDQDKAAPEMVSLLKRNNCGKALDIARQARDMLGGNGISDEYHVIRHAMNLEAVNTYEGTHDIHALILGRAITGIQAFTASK
# UniProt Q99988: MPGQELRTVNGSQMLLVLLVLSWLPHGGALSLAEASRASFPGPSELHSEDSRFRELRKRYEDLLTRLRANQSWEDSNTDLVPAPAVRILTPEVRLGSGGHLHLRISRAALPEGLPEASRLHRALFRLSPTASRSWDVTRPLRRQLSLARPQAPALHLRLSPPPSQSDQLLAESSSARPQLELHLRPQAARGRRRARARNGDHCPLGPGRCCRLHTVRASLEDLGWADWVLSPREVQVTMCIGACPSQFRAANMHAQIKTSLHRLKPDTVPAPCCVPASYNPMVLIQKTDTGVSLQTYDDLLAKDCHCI
# UniProt Q6ZNW5: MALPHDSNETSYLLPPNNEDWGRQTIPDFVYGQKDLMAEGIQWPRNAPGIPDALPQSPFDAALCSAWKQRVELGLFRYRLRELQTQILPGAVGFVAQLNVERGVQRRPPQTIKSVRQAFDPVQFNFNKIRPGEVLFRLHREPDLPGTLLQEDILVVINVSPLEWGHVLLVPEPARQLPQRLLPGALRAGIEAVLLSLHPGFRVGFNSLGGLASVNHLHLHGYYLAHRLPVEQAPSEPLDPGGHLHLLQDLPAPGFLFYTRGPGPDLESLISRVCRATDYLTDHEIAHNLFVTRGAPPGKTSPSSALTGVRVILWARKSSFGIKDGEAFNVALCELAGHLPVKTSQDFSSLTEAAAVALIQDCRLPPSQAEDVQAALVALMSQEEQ
# UniProt Q9UPW0: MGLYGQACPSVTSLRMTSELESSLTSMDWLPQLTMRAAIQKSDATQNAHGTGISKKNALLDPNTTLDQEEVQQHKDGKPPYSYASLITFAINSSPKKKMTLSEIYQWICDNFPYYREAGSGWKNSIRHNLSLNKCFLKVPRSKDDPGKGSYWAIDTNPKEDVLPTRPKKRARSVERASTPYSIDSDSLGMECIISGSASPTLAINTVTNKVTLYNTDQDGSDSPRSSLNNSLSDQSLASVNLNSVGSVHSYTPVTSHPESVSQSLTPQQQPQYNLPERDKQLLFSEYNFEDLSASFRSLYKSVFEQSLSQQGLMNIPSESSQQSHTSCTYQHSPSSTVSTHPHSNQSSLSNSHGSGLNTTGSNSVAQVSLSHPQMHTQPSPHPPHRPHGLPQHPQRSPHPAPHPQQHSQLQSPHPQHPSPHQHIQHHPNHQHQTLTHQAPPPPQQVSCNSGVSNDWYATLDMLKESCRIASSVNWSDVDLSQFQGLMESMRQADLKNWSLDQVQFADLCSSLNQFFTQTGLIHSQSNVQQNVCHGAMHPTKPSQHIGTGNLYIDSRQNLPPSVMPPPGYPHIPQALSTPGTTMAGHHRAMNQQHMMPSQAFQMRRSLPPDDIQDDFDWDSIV
# UniProt Q8NCL4: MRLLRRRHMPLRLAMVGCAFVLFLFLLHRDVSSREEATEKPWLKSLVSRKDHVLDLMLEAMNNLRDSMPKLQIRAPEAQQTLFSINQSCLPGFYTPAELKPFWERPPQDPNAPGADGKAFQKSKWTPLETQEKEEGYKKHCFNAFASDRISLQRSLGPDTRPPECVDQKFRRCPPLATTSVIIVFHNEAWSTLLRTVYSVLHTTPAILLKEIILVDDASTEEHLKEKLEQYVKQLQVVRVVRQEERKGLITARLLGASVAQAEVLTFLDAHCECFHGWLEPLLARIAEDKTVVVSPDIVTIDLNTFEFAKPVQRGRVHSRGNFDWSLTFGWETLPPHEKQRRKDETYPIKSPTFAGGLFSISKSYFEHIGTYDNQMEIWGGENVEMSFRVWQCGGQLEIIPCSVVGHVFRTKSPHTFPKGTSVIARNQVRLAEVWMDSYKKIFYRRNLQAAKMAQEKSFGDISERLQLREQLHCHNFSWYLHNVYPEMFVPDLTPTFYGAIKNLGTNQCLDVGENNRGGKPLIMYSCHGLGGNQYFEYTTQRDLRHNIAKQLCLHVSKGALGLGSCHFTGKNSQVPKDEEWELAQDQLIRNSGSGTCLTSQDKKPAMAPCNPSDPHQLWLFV
# UniProt Q9UJ14: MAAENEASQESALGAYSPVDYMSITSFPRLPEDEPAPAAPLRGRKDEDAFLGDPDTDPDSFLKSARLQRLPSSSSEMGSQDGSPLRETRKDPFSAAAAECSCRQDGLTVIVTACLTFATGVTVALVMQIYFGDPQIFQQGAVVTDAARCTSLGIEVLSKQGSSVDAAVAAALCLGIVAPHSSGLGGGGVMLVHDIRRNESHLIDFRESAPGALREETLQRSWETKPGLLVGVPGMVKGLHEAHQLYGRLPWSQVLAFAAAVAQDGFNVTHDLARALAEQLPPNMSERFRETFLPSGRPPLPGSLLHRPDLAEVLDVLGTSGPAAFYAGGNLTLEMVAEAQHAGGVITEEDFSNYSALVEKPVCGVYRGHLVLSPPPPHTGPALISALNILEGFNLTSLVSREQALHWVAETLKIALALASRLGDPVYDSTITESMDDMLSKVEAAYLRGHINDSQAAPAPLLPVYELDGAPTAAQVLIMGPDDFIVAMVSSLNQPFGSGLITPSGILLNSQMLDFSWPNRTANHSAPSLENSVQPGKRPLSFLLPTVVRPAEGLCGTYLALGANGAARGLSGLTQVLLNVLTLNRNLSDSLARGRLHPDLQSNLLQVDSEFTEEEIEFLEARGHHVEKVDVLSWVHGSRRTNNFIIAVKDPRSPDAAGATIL
# UniProt Q14C86: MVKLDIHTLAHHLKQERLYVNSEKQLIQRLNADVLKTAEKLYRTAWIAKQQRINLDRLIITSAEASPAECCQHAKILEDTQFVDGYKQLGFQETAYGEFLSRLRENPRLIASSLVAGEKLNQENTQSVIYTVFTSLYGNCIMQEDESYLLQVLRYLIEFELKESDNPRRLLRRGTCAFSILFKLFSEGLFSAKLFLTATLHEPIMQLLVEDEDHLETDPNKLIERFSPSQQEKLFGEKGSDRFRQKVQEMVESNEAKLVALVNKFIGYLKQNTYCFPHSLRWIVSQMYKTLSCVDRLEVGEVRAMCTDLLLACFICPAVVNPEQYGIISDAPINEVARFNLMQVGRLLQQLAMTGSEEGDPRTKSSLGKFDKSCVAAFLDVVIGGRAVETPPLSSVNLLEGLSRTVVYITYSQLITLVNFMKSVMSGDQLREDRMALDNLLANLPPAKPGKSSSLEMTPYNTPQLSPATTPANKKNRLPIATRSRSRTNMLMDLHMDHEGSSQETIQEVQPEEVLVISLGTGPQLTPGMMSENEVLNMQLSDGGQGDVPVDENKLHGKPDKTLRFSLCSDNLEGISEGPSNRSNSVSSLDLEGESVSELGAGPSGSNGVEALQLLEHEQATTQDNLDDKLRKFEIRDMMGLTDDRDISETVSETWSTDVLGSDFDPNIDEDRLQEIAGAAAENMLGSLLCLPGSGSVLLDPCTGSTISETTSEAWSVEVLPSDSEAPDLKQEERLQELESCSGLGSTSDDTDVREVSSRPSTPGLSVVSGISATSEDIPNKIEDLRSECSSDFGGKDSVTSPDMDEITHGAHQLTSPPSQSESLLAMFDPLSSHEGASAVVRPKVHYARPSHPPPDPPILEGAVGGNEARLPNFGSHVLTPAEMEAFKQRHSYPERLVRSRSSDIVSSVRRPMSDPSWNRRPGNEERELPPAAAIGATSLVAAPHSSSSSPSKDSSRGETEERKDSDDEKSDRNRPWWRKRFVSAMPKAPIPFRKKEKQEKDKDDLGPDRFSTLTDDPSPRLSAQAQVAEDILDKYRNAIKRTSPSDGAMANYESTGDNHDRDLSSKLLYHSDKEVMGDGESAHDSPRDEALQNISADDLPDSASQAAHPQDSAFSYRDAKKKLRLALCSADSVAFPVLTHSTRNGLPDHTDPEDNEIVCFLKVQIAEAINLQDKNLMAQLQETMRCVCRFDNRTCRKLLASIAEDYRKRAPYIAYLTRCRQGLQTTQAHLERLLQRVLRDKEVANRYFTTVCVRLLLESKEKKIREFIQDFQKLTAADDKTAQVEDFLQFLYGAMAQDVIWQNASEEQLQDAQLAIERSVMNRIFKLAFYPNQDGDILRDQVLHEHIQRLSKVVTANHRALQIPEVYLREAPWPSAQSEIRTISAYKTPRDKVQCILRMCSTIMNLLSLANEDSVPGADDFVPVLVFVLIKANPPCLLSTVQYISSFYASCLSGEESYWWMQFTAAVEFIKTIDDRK
# UniProt P01275: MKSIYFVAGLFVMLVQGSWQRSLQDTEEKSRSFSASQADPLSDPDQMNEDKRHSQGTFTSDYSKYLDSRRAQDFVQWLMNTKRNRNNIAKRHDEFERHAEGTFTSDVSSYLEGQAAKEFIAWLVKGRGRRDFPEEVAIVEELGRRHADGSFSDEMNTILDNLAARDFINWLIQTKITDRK
# UniProt Q8IVP5: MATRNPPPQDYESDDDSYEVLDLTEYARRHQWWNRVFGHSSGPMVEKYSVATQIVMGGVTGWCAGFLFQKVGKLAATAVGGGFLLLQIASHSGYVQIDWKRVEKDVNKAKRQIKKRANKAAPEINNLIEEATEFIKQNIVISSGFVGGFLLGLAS
# Columns and labels:
# Assay in all cases: log2 fold change, soluble protein after heating vs DMSO (PISA); higher = thermal stabilisation; K562 cells, 10 uM, 30 min; active = over 0.2 and 3.5 SD of the protein, either way, in both replicates (recomputed)
# saracatinib = compound: CN1CCN(CCOc2cc(OC3CCOCC3)c3c(Nc4c(Cl)ccc5c4OCO5)ncnc3c2)CC1 [saracatinib]
# Procedure, shortened: (§1)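 K562 cells at 2×10^6 cells/mL were treated with 10 μM compound for 30 min. Aliquots were heated for 3 min across 48°C-58°C, pooled, and extracted in PBS with 0.5% NP-40 at 4°C; soluble protein was the supernatant after 21,000xg for 90 min. Soluble protein was quantified by TMTpro 16plex LC-MS/MS with channel sums equalised, and reported as log2 fold change in thermal stability against DMSO controls, with values from duplicates.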
# sotrastaurin = compound: CN1CCN(c2nc(C3=C(c4c[nH]c5ccccc45)C(=O)NC3=O)c3ccccc3n2)CC1 [sotrastaurin]
# Procedure, shortened: as §1
# alvocidib = compound: CN1CC[C@H](c2c(O)cc(O)c3c(=O)cc(-c4ccccc4Cl)oc23)[C@H](O)C1 [alvocidib]
# Procedure, shortened: as §1
# [1] = compound: CNC(=O)C1=CC=CC=C1NC2=NC(=NC=C2Cl)NC3=C(C=C(C=C3)N4CCOCC4)OC
# Procedure, shortened: as §1
# defactinib = compound: CNC(=O)c1ccc(Nc2ncc(C(F)(F)F)c(NCc3nccnc3N(C)S(C)(=O)=O)n2)cc1 [defactinib]
# Procedure, shortened: as §1
# [2] = compound: CNc1nc(-c2ccc3c(N)n[nH]c3c2)cc(N2C[C@@H](C(=O)NC3CCCCC3)CC[C@H]2C)n1
# Procedure, shortened: as §1
# [3] = compound: COC(=O)[C@H](CCSC)NC(=O)C1=C(C=C(C=C1)NC[C@H](CS)N)C2=CC=CC=C2
# Procedure, shortened: as §1
# Tubastatin A = compound: CN1CCc2c(c3ccccc3n2Cc2ccc(C(=O)NO)cc2)C1 [Tubastatin A]
# Procedure, shortened: as §1
# rucaparib = compound: CNCc1ccc(-c2[nH]c3cc(F)cc4c3c2CCNC4=O)cc1 [rucaparib]
# Procedure, shortened: as §1
# encorafenib = compound: COC(=O)N[C@@H](C)CNc1nccc(-c2cn(C(C)C)nc2-c2cc(Cl)cc(NS(C)(=O)=O)c2F)n1 [encorafenib]
# Procedure, shortened: as §1
Target,log2 fold change (saracatinib),log2 fold change (sotrastaurin),log2 fold change (alvocidib),log2 fold change [1],log2 fold change (defactinib),log2 fold change [2],log2 fold change [3],log2 fold change (Tubastatin A),log2 fold change (rucaparib),log2 fold change (encorafenib)
FPGS (UniProt Q05932),inactive: -0.186,inactive: 0.025,inactive: -0.131,inactive: 0.074,inactive: -0.016,inactive: -0.2,inactive: 0.067,–,–,–
FOPNL (UniProt Q96NB1),inactive: -0.054,inactive: 0.23,inactive: 0.075,inactive: -0.039,inactive: -0.069,inactive: -0.115,inactive: 0.067,inactive: 0.216,–,–
FUCA1 (UniProt P04066),inactive: 0.038,inactive: -0.048,–,inactive: -0.015,inactive: -0.032,inactive: 0.023,inactive: 0.014,inactive: -0.035,inactive: -0.186,inactive: 0
GALNT2 (UniProt Q10471),inactive: -0.025,inactive: 0.005,–,inactive: 0.004,inactive: 0.023,inactive: -0.015,inactive: -0.017,inactive: 0.013,inactive: -0.046,inactive: 0.036
FRA10AC1 isoform 3 (UniProt Q70Z53),inactive: 0.125,inactive: 0.133,–,inactive: -0.01,inactive: 0,inactive: -0.196,inactive: -0.067,inactive: -0.023,inactive: -0.035,inactive: -0.103
FXYD5 (UniProt Q96DB9),inactive: 0.062,inactive: 0.034,inactive: -0.489,–,inactive: -0.023,inactive: -0.039,inactive: -0.148,–,–,–
FUT8 (UniProt Q9BYC5),inactive: -0.095,inactive: -0.049,–,inactive: 0.023,inactive: 0.049,inactive: 0.017,active: 0.506,inactive: 0.02,inactive: -0.037,inactive: 0.018
GALNT11 (UniProt Q8NCW6),inactive: -0.025,inactive: -0.024,–,inactive: 0.033,inactive: -0.187,inactive: 0.01,inactive: -0.055,inactive: 0.028,inactive: -0.047,inactive: -0.064
GCFC2 isoform 3 (UniProt P16383),inactive: -0.31,–,–,inactive: -0.008,inactive: 0.018,inactive: 0.015,inactive: 0.007,inactive: -0.279,–,–
GATA1 (UniProt P15976),inactive: 0.097,inactive: -0.042,–,inactive: 0.104,inactive: 0.088,inactive: -0.014,inactive: 0,inactive: -0.049,inactive: 0.086,inactive: 0.054
GBE1 (UniProt Q04446),inactive: -0.252,–,–,inactive: -0.027,inactive: -0.195,inactive: 0.076,inactive: -0.034,inactive: 0.055,inactive: -0.132,inactive: 0.062
FUBP3 (UniProt Q96I24),inactive: 0.012,inactive: 0.05,–,inactive: -0.039,inactive: 0.184,inactive: -0.049,inactive: -0.032,inactive: -0.092,inactive: 0.167,inactive: -0.003
GALNT4 (UniProt Q8N4A0),inactive: -0.088,inactive: -0.029,–,inactive: -0.063,inactive: 0.016,inactive: -0.138,inactive: -0.013,inactive: 0.046,inactive: -0.079,inactive: 0.04
FOXRED2 (UniProt Q8IWF2),inactive: -0.125,–,inactive: -0.075,inactive: 0.11,inactive: 0.041,inactive: 0.017,inactive: 0.02,inactive: 0.098,inactive: 0.113,inactive: 0.229
GDI1 (UniProt P31150),inactive: 0.017,inactive: 0.012,–,inactive: 0.012,inactive: -0.046,inactive: -0.015,inactive: 0.009,inactive: -0.025,inactive: -0.042,inactive: 0.006
GDE1 (UniProt Q9NZC3),inactive: 0.029,inactive: 0.051,–,inactive: -0.003,inactive: -0.017,inactive: 0.01,inactive: 0.024,active: -0.316,inactive: 0.009,inactive: -0.017

Target,log2 fold change (saracatinib),log2 fold change (sotrastaurin),log2 fold change (alvocidib),log2 fold change [1],log2 fold change (defactinib),log2 fold change [2],log2 fold change [3],log2 fold change (Tubastatin A),log2 fold change (rucaparib),log2 fold change (encorafenib)
GGA2 (UniProt Q9UJY4),inactive: -0.054,inactive: 0.053,–,inactive: -0.025,inactive: 0.025,inactive: -0.054,inactive: 0.122,inactive: -0.088,inactive: -0.064,inactive: 0.068
GCDH (UniProt Q92947),inactive: 0.035,inactive: 0.07,–,inactive: -0.054,inactive: -0.012,inactive: 0.009,inactive: 0.008,inactive: 0.004,inactive: 0.045,inactive: -0.047
GEMIN2 (UniProt O14893),inactive: 0.001,inactive: 0.067,–,–,inactive: -0.041,inactive: 0.013,inactive: 0.072,–,inactive: 0.136,inactive: 0.151
GDF15 (UniProt Q99988),inactive: -0.139,–,inactive: 0.054,–,inactive: -0.097,inactive: -0.022,inactive: 0.007,inactive: 0.398,inactive: 0.165,inactive: 0.144
GDPGP1 (UniProt Q6ZNW5),inactive: -0.132,–,inactive: -0.077,inactive: -0.086,–,inactive: -0.019,–,inactive: -0.023,–,–
GEMIN5 (UniProt Q8TEQ6),inactive: -0.014,inactive: -0.035,–,inactive: -0.02,active: -0.216,inactive: 0.025,inactive: -0.019,inactive: -0.053,inactive: 0.026,inactive: 0.061
GABPB1 isoform 3 (UniProt Q06547),inactive: -0.086,–,inactive: -0.414,–,inactive: -0.316,inactive: 0.114,inactive: -0.001,inactive: 0.034,–,–
FOXJ3 (UniProt Q9UPW0),inactive: 0.159,–,inactive: -0.151,inactive: -0.029,inactive: -0.038,inactive: -0.35,inactive: 0.379,inactive: -0.057,inactive: -0.176,inactive: 0.007
GALNT6 (UniProt Q8NCL4),inactive: 0.249,inactive: 0.055,–,inactive: 0.006,–,inactive: -0.018,–,inactive: -0.005,–,–
GGT7 (UniProt Q9UJ14),inactive: 0.066,inactive: 0.051,–,inactive: -0.042,inactive: -0.027,inactive: -0.091,inactive: -0.011,inactive: 0.053,inactive: -0.038,inactive: 0
GATB (UniProt O75879),inactive: 0.007,inactive: -0.177,–,inactive: -0.092,inactive: -0.257,inactive: -0.042,inactive: -0.308,inactive: 0.031,–,–
GAPVD1 isoform 6 (UniProt Q14C86),inactive: -0.04,inactive: -0.158,–,inactive: -0.007,inactive: -0.07,inactive: 0.032,inactive: -0.043,inactive: -0.009,inactive: 0.103,inactive: 0.125
GALC (UniProt P54803),inactive: 0.033,inactive: 0.047,–,inactive: -0.003,inactive: 0.017,inactive: -0.015,inactive: -0.005,inactive: -0.028,inactive: -0.091,inactive: 0.024
GCG (UniProt P01275),inactive: 0.571,–,inactive: 1.82,–,–,inactive: -0.305,–,–,–,–
FUNDC1 (UniProt Q8IVP5),–,inactive: 0.049,–,–,–,–,–,–,–,–
